{
  "source": "patent US11420967B2",
  "about": "(priority 2018, dated 2022)",
  "format_in_all_cases": "cell-based",
  "key": {"[1]": {"system": "human PAD-7mut glioblastoma cells", "assay": "Cell proliferation of PAD-7mut glioblastoma cells (BrdU incorporation)", "settings": "PAD-7mut cells, 3 days", "from_the_text": "(§1) FIG. 28 illustrates the effect of the compound of the disclosure on the cell proliferation of glioblastomas, neural stem cells and PDGF-amplified signaling glioblastomas. Panels A-B: Cell proliferation of human PAD-7^mut glioblastoma cells in culture (neural stem cells CB660 harboring 7 driver mutations involved in glioblastoma pathogenesis: TP53^DD, TERT^mut, CCND1^mut; CDK4R^24C; p16 binding deficient; EGFR^vIII and myristolated-AKT), and has non-methylated MGMT promoter (temozolomide insensitive) and human GBM8 glioblastoma cells in culture (patient-derived human glioblastoma cells closest to proneural phenotype) and has methylated MGMT promoter (temozolomide sensitive). […]\n(§2) FIGS. 28 A-B provide cell proliferation of human PAD-7^mut glioblastoma cells in culture (neural stem cells CB660 harboring 7 driver mutations involved in glioblastoma pathogenesis: TP53^DD, TERT^mut, CCND1^mut; CDK4R^24C; p16 binding deficient; EGFR^vIII and myristolated-AKT), and has non-methylated MGMT promoter (temozolomide insensitive) and human GBM8 glioblastoma cells in culture (patient-derived human glioblastoma cells closest to proneural phenotype) and has methylated MGMT promoter (temozolomide sensitive). Cell proliferation was measured by quantifying BrdU incorporation in cells at seeding (dark gray zone) and following 3 days (light gray zone) of treatment with compound 19 and temozolomide. […]"}, "[2]": {"system": "human GBM8 glioblastoma cells", "assay": "Cell proliferation of GBM8 glioblastoma cells (BrdU incorporation)", "settings": "3 days, 300 μM", "from_the_text": "as §1, §2"}, "[3]": {"system": "mouse PDGF-glioblastoma cells", "assay": "Cell proliferation of mouse PDGF-glioblastoma cells (BrdU incorporation)", "settings": "3 days", "from_the_text": "as §1, §2"}},
  "note": "For at least one compound, name, drawing or mass did not settle the structure.",
  "data": [
    {"smiles": "Cn1nnc2c(C(N)=O)ncn2c1=O", "note": "[temozolomide, reference compound]", "values": [
      {"measurement": "sensitivity of cell proliferation (in words)", "setting": "[1]", "result": "insensitive"},
      {"measurement": "sensitivity of cell proliferation (in words)", "setting": "[2]", "result": "only sensitive at high concentration"},
      {"measurement": "effect on cell proliferation (in words)", "setting": "[3]", "result": "Neither compound 19 nor temozolomide affect the cell proliferation"}
    ]}
  ]
}
